Test results from patent US20020065210A1.
These are yes or no findings as the source states them, for the method shown. In cells and extracts the contact can be indirect. Some entries that bind do so weakly or less than the wild type.

By UniProt entry, the sequences of proteins in these tests, tags left out. Residues count along the entry.
UniProt P48023, residues 103-281: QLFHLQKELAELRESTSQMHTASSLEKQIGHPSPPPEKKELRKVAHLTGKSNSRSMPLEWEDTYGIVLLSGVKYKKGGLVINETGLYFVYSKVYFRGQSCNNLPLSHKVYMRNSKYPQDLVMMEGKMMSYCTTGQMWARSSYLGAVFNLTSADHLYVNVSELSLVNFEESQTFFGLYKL
UniProt P25445, residues 26-173: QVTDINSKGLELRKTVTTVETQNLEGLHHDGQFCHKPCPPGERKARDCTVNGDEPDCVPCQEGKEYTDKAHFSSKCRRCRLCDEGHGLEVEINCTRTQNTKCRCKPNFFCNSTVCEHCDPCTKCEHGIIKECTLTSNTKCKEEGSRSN

Biological target: purified, soluble Fas ligand (Alexis Biochemicals) (UniProt P48023)
Experiment: co-immunoprecipitation with protein A-sepharose, anti-Fas ligand immunoblot

Substance: Fc-tagged Fas ectodomain (from UniProt P25445 26-173) (Fc fusion)
- binding: binds
